This note sets out measurements from the supplement of paper PMC10849652.

Protein sequences, listed by entry. Tags and fused reporters are not part of them. Lines headed by an entry give the natural chain unless they say otherwise; changes in a name come on top.
UniProt Q9C004: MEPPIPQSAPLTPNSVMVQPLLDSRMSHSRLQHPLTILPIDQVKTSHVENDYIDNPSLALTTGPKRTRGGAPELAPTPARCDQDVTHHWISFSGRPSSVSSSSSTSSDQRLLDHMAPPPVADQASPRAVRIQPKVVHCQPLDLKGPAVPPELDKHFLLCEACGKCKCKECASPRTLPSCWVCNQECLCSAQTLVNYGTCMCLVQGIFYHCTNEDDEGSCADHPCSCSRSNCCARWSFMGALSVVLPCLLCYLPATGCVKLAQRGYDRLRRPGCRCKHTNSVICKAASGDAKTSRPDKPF
UniProt O75494: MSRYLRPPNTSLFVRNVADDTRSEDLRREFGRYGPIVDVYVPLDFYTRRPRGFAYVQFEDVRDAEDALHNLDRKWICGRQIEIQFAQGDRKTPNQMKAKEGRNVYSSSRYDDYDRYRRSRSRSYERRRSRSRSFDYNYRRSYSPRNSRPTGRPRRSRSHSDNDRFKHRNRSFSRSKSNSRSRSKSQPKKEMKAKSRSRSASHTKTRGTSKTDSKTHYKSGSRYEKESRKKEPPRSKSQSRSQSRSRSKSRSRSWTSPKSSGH
UniProt Q14534: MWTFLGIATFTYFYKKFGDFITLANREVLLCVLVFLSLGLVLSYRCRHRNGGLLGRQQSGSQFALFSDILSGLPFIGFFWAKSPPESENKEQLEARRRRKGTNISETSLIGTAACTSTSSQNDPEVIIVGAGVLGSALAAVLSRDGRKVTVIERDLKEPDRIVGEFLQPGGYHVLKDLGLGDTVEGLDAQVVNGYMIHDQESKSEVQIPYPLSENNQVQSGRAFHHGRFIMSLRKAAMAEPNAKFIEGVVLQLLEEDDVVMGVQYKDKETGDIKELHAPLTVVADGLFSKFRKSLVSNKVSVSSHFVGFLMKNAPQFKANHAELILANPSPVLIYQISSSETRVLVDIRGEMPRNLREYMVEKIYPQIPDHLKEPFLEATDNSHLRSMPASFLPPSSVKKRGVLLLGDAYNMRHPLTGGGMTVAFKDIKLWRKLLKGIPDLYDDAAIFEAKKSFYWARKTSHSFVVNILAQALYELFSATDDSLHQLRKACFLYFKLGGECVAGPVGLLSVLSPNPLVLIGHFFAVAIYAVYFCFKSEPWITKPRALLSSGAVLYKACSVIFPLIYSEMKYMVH
UniProt Q01082, whole entry, looked up: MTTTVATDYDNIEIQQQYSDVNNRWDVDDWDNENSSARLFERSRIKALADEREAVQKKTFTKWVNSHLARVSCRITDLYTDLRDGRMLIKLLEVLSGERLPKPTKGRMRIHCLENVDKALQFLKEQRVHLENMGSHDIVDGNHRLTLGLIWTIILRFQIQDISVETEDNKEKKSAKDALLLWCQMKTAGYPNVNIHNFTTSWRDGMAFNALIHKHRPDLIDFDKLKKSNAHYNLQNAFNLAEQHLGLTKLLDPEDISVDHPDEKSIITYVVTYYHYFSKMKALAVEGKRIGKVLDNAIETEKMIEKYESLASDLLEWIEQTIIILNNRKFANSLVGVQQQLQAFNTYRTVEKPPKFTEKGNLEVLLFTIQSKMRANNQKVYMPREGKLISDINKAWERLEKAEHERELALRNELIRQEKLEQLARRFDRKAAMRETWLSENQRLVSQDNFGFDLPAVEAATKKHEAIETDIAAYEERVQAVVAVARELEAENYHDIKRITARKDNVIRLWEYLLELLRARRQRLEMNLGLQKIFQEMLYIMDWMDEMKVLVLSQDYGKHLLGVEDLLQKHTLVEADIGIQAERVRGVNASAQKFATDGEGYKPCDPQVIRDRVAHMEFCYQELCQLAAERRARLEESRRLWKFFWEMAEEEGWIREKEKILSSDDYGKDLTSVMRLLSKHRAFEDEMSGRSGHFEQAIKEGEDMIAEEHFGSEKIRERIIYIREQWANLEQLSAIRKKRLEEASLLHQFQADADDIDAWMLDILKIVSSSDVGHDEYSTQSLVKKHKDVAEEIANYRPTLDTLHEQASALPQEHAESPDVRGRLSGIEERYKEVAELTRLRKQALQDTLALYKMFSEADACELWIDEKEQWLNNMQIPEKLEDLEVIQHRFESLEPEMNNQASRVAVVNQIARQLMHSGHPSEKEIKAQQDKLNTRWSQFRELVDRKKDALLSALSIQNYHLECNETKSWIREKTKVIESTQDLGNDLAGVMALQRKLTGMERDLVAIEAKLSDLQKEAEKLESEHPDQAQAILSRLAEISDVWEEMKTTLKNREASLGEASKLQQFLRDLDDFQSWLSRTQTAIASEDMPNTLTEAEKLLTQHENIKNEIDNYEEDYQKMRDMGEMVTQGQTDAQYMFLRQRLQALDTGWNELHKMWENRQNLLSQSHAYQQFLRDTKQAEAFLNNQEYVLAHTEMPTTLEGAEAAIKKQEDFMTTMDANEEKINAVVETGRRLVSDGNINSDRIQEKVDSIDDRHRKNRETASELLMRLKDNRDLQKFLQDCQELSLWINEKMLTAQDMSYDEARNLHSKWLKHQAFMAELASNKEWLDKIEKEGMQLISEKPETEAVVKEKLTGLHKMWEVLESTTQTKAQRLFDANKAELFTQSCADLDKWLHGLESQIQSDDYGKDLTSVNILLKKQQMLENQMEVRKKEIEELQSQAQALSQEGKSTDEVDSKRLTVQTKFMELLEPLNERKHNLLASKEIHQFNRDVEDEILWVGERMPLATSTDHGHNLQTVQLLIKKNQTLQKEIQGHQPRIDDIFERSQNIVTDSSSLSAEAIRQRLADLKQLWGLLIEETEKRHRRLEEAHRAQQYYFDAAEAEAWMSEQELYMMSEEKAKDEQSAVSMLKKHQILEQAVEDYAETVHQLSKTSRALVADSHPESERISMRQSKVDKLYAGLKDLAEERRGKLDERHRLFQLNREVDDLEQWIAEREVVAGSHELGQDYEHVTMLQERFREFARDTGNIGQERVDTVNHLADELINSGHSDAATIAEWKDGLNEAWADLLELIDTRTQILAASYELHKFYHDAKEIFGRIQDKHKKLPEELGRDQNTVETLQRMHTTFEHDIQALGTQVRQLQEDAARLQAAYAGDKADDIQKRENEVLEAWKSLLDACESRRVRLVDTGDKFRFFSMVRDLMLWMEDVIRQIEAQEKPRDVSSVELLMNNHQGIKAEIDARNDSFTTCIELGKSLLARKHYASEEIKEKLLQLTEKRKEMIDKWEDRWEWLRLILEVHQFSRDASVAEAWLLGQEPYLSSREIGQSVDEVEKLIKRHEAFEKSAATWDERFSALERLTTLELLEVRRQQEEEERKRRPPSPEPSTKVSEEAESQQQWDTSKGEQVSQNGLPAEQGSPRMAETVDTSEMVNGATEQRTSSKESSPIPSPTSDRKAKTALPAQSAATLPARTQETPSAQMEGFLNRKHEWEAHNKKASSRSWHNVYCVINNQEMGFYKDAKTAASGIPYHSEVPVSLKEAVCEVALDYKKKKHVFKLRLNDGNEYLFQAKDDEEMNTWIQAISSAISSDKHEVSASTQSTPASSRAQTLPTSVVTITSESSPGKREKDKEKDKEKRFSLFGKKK
UniProt Q9BUA3: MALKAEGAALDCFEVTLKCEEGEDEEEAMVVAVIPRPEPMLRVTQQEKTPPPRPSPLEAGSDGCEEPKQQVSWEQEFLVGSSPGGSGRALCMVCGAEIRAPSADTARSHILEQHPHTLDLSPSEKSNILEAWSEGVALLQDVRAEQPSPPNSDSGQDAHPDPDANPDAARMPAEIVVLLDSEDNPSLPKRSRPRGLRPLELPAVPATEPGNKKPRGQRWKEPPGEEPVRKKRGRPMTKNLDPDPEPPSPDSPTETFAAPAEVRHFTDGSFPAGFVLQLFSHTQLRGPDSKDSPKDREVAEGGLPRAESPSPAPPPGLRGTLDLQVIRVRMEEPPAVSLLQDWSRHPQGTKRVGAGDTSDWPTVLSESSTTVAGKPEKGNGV
UniProt Q9UNL2: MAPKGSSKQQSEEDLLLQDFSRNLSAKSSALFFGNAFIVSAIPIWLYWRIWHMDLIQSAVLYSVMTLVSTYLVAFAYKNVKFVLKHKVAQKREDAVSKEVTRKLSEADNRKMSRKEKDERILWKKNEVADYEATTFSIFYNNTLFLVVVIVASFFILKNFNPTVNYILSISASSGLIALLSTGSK
UniProt Q9BYN0: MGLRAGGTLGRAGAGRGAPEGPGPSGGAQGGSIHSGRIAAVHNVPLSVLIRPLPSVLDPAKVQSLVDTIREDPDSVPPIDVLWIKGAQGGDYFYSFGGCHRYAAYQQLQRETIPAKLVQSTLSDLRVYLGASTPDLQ
UniProt O94768: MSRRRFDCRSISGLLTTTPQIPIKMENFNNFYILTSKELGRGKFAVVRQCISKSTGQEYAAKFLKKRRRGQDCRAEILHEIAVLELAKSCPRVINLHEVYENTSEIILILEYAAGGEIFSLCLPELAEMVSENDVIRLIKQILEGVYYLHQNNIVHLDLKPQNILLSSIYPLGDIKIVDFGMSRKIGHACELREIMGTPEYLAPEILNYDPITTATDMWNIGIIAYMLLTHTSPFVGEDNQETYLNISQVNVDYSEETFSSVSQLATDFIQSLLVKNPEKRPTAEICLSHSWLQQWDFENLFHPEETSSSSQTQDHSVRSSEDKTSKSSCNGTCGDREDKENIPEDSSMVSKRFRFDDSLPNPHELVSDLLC
UniProt Q9UHB9: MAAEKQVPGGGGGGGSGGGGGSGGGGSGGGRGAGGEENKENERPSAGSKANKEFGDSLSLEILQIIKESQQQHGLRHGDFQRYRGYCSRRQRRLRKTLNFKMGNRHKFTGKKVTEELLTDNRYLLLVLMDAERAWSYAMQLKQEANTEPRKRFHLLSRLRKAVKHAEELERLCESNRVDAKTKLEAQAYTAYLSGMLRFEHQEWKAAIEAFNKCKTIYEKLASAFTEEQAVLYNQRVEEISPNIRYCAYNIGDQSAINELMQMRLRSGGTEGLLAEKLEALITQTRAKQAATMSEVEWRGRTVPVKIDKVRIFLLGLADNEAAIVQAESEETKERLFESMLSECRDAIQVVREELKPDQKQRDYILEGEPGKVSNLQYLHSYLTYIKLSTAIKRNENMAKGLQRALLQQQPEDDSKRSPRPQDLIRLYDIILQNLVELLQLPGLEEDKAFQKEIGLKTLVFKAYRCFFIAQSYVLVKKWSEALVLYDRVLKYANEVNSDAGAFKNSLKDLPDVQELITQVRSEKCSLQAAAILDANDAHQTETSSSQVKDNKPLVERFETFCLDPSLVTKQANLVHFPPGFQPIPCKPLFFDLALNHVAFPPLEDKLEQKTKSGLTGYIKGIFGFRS
UniProt Q658P3: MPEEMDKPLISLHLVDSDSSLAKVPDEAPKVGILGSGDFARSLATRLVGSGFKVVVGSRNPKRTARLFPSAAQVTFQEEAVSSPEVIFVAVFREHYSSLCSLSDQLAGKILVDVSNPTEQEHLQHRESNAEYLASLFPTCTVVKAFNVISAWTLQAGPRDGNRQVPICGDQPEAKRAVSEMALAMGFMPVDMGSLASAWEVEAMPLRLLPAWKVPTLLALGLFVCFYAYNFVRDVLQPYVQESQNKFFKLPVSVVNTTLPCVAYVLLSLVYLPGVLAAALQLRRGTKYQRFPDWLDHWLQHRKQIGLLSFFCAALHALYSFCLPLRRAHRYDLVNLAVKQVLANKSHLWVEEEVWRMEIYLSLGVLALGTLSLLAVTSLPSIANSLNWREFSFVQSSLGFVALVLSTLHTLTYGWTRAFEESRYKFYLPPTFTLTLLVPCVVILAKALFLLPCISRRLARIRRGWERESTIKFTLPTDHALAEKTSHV
UniProt Q13586, whole entry, looked up: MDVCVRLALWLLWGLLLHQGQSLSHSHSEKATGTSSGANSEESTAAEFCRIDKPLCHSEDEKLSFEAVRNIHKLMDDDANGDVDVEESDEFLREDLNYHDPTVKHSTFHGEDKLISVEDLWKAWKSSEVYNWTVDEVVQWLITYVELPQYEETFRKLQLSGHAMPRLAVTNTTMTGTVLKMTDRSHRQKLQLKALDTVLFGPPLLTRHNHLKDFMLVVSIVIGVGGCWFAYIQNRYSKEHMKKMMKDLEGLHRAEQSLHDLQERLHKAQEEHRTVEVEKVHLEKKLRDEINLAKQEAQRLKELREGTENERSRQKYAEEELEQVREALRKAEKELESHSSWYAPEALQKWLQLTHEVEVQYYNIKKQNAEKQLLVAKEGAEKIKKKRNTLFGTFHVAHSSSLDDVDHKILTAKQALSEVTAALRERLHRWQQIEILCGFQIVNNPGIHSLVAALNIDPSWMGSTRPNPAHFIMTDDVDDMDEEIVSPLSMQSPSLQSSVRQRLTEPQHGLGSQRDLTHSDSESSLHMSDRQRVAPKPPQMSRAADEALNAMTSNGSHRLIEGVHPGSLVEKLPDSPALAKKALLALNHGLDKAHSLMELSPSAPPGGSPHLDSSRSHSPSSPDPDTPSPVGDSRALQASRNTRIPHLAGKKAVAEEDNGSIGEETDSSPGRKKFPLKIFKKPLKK
UniProt Q5W111: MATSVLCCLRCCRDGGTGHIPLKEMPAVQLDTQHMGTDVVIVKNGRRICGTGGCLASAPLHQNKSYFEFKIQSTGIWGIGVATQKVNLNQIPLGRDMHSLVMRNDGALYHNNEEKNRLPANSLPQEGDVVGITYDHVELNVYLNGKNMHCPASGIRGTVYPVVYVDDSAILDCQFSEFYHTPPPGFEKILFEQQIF

The list shows a part of the results.

Common to all, as to assay: log2 fold change, soluble protein after heating vs DMSO (PISA); higher = thermal stabilisation; K562 cells, 10 uM, 30 min; active = over 0.2 and 3.5 SD of the protein, either way, in both replicates (recomputed)
Compound in test [1]: COC1=CC=C(C=C1)CN2C=CC3=C2C=C(C=C3)C(=O)NO
Put shortly: (§1)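 K562 cells (2×10^6 cells/mL) were treated with 10 μM compound for 30 min, and aliquots were heated for 3 min over 48°C-58°C. Pooled aliquots were extracted in PBS with 0.5% NP-40 at 4°C, and the supernatant after 21,000xg for 90 min was measured by TMTpro 16plex LC-MS/MS with channel sums equalised. Reported thermal stability, relative to control samples and from duplicates, is a log2 fold change.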

Compound in a further test: CON(C)C(=O)N1N=C(c2cc(F)ccc2F)S[C@@]1(CCCN)c1ccccc1 [filanesib]
The gist of the method: as §1

Compound in a further test: CO[C@H]1C[C@@H]2CC[C@@H](C)[C@@](O)(O2)C(=O)C(=O)N2CCCC[C@H]2C(=O)O[C@H]([C@H](C)C[C@@H]2CC[C@H](n3cnnn3)[C@H](OC)C2)CC(=O)[C@H](C)/C=C(\C)[C@@H](O)[C@@H](OC)C(=O)[C@H](C)C[C@H](C)/C=C/C=C/C=C/1C [zotarolimus]
The gist of the method: as §1

Compound in the next test: COc1cc(C(=O)O)ccc1NC(=O)[C@@H]1N[C@@H](CC(C)(C)C)[C@](C#N)(c2ccc(Cl)cc2F)[C@H]1c1cccc(Cl)c1F [idasanutlin]
The gist of the method:
as §1

Compound in the next test: COc1cc(Nc2ncc3c(n2)-c2ccc(Cl)cc2C(c2c(F)cccc2OC)=NC3)ccc1C(=O)O [alisertib]
The gist of the method:
as §1

Compound in test [2]: COc1cc2nc(-c3cc(F)ccc3O)nc(N[C@@H]3CNC[C@H]3C(C)(C)O)c2cc1OC
The gist of the method:
as §1

Compound in the next test: COc1cc2ncnc(Nc3ccc(F)c(Cl)c3)c2cc1OCCCN1CCOCC1 [gefitinib]
The gist of the method:
as §1

Compound in test [3]: COc1cccc2cc(-c3nc([C@H]4CC[C@H](C(=O)O)CC4)n4ncnc(N)c34)[nH]c12
Put shortly: as §1

Compound in another test: CS(=O)(=O)CCNCc1ccc(-c2ccc3ncnc(Nc4ccc(OCc5cccc(F)c5)c(Cl)c4)c3c2)o1 [lapatinib]
The gist of the method: as §1

Compound in a further test: CS(=O)(=O)N1CCN(Cc2cc3nc(-c4cccc5[nH]ncc45)nc(N4CCOCC4)c3s2)CC1 [pictilisib]
The gist of the method:
as §1

For the target SPRY4 (UniProt Q9C004), the log2 fold change in test [1] is inactive: -0.012; with filanesib, inactive: -0.103; in the test with zotarolimus it was inactive: -0.033; with idasanutlin it was inactive: -0.042; with alisertib it was inactive: 0.005; in test [2], inactive: -0.017. The log2 fold change is inactive: -0.003 in the test with gefitinib, inactive: -0.015 in [3], inactive: -0.073 with lapatinib and inactive: 0.026 with pictilisib.

With SRGAP2 (UniProt O75044), the log2 fold change in test [1] was inactive: -0.017; in the test with filanesib, inactive: 0.034; with zotarolimus, inactive: 0.009; with idasanutlin, inactive: 0; with alisertib it was inactive: -0.048; in test [2], inactive: 0.051. In addition, the log2 fold change is inactive: 0.026 in the test with gefitinib, inactive: 0.011 in [3], inactive: -0.023 with lapatinib and inactive: 0.064 with pictilisib.

In the case of SRSF10 (UniProt O75494), the log2 fold change was inactive: -0.102 in test [1]; inactive: 0.424 with filanesib; inactive: -0.157 in the test with zotarolimus; inactive: 0.388 in the test with idasanutlin; inactive: -0.099 with alisertib; inactive: -0.169 in [2]. The log2 fold change in the test with gefitinib is inactive: -0.009; in test [3] it was inactive: -0.056; in the test with lapatinib, inactive: 0.101; with pictilisib, inactive: -0.042.

With SPAST (UniProt Q9UBP0), the log2 fold change in test [1] is inactive: 0.03; with filanesib, inactive: -0.028; with zotarolimus, inactive: -0.006; with idasanutlin, inactive: -0.038; with alisertib, inactive: -0.1; in test [2] it was inactive: 0.096. Besides, the log2 fold change is inactive: -0.019 with gefitinib, inactive: -0.042 in test [3], inactive: -0.019 in the test with lapatinib and inactive: -0.041 in the test with pictilisib.

For SRSF7 (UniProt Q16629), the log2 fold change is inactive: -0.089 in test [1]; inactive: 0.422 in the test with filanesib; inactive: -0.015 with zotarolimus; inactive: 0.327 with idasanutlin; inactive: -0.114 with alisertib; inactive: -0.047 in test [2]. Moreover, the log2 fold change in the test with gefitinib was inactive: 0.084; in test [3], inactive: 0.013; with lapatinib, inactive: 0.1; with pictilisib, inactive: -0.003.

On to SQLE (UniProt Q14534), for which the log2 fold change is inactive: 0.025 in test [1]; inactive: 0.032 in the test with filanesib; inactive: 0.141 with zotarolimus; inactive: -0.026 in the test with idasanutlin; inactive: -0.028 with alisertib; inactive: -0.021 in test [2]. Also, the log2 fold change in the test with gefitinib was inactive: -0.024; in test [3], inactive: -0.031; with lapatinib, inactive: -0.087; in the test with pictilisib, inactive: 0.051.

Regarding SPTBN1 (UniProt Q01082), the log2 fold change was inactive: -0.037 in [1]; inactive: 0.102 in the test with filanesib; inactive: 0.045 with zotarolimus; inactive: 0.053 with idasanutlin; inactive: -0.073 with alisertib; inactive: 0.02 in test [2]. Moreover, the log2 fold change in the test with gefitinib is inactive: 0.084; in test [3], inactive: -0.076; in the test with lapatinib, inactive: 0.031; in the test with pictilisib, inactive: 0.007.

Consider SPINDOC (UniProt Q9BUA3), for which the log2 fold change in [1] was inactive: 0.165; in the test with filanesib, inactive: 0.221; with zotarolimus it was inactive: -0.02; with idasanutlin, inactive: 0.008; with alisertib, inactive: -0.113; in test [2] it was inactive: 0.145. Moreover, the log2 fold change in the test with gefitinib is inactive: 0.073; in [3] it was inactive: 0.017; with lapatinib, inactive: -0.045; with pictilisib, inactive: -0.117.

For the target SPIN4 (UniProt Q56A73), in test [1], the log2 fold change is active: -1.43.

For the target SSR3 isoform 2 (UniProt Q9UNL2), the log2 fold change was inactive: -0.236 in [1]; inactive: -0.107 with filanesib; inactive: 0.087 with zotarolimus; inactive: 0.066 with idasanutlin; inactive: -0.015 with alisertib; inactive: -0.013 in test [2]. Besides, the log2 fold change with gefitinib is inactive: 0.003; in test [3], inactive: 0.08; in the test with lapatinib, inactive: 0.006; with pictilisib, inactive: -0.096.

With SRXN1 (UniProt Q9BYN0), the log2 fold change in [1] was inactive: 0.406; with filanesib it was inactive: 0.076; in the test with zotarolimus, inactive: 0.022; with idasanutlin, inactive: -0.028; in the test with alisertib, inactive: 0.098; in test [2], inactive: -0.036. For the same target, the log2 fold change with gefitinib is inactive: 0.012; in test [3] it was inactive: 0.001; in the test with lapatinib it was inactive: 0.151; with pictilisib it was active: -0.562.

As for STK17B (UniProt O94768), the log2 fold change in [1] is inactive: 0.01.

Regarding STK16 (UniProt O75716), the log2 fold change in [1] is inactive: -0.033.

For the target SRP68 (UniProt Q9UHB9), the log2 fold change in test [1] is inactive: 0.024; in the test with filanesib it was inactive: 0.066; in the test with zotarolimus, inactive: 0.043; with idasanutlin it was inactive: -0.036; with alisertib, inactive: -0.029; in [2], inactive: 0.016. Besides, the log2 fold change in the test with gefitinib was inactive: 0.008; in [3], inactive: -0.126; with lapatinib, inactive: -0.011; in the test with pictilisib, inactive: -0.054.

For STEAP3 isoform 2 (UniProt Q658P3), the log2 fold change in test [1] was inactive: -0.028; with filanesib, inactive: -0.014; in the test with zotarolimus, inactive: -0.06; with idasanutlin, inactive: -0.11; in the test with alisertib, inactive: -0.028; in [2], inactive: 0.035. For the same target, the log2 fold change with gefitinib was inactive: -0.01; in [3], inactive: 0.025; with lapatinib, inactive: 0.013; with pictilisib it was active: 0.227.

STIM1 (UniProt Q13586): the log2 fold change in [1] is inactive: 0.048; with filanesib, inactive: -0.123; with zotarolimus, inactive: 0.041; with idasanutlin, inactive: 0.02; with alisertib it was inactive: -0.029; in test [2], inactive: -0.218. For the same target, the log2 fold change with gefitinib is inactive: 0; in [3] it was inactive: 0.037; with lapatinib, inactive: -0.011; in the test with pictilisib, inactive: 0.036.

As to SPRYD7 (UniProt Q5W111), the log2 fold change in [1] is inactive: 0.007; with filanesib, inactive: -0.029; with zotarolimus it was inactive: 0.061; in the test with idasanutlin, inactive: -0.043; with alisertib, inactive: -0.098; in [2], inactive: 0.119. Further, the log2 fold change with gefitinib is inactive: 0.03; in [3], inactive: -0.016; with lapatinib it was inactive: -0.013; in the test with pictilisib it was inactive: 0.063.
